Data source: PubChem BioAssay AID1259298 (Sanger Institute, 2017)
In all, the deposit lists 794 reagents; shown is an unselected part. Over the whole deposit, 20 (2.5%) got an active call. 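Calls rest only on the knock-down-alone score; drug synergy scores played no part in them.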 Entries without a mark were called inactive. Viability is capped at 1. Not given: the amount of reagent, the time to read-out.

- Purpose: 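Kinome knock-downs lethal on their own or synergising with anchor drugs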 (primary screen)
- Cells: HT55 human colorectal cancer cell line
- Knock-down reagent: siRNA pool against human genes
- Challenge: anchor drug BYL719 1 µM, cetuximab 5 µg/ml or trametinib 10 nM, or DMSO vehicle alone
- Read-out: 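Replicate-averaged viability versus wells of non-targeting pool; knock-down-only robust z-score; per-drug synergy score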
- Reading the numbers: robust z-score, knock-down alone: higher = more cells remaining; low means essential gene; viability vs control pool, no drug: higher = more viable cells; synergy score with BYL719 and synergy score with cetuximab and synergy score with trametinib: higher = stronger synthetic lethality with the drug
- Hit rule: 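Essential when the robust z-score for knock-down alone with DMSO is below -3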
- Meaning of the calls: active = essential (knock-down alone); inactive = no change alone

target gene | robust z-score, knock-down alone | viability vs control pool, no drug (fraction) | synergy score with BYL719 | synergy score with cetuximab | synergy score with trametinib
ALPK2 (alpha kinase 2) | 0.14 | 0.966 | -0.296 | -0.0727 | -0.058
PTK7 (protein tyrosine kinase 7 (inactive)) | -2.39 | 0.768 | -0.0523 | 0.0252 | -0.141
ROR1 (ROR family WNT receptor 1) | 0.58 | 1 | -0.132 | 0.0318 | -0.0281
AGK (acylglycerol kinase) | 0.58 | 1 | -0.272 | -0.093 | 0.0219
CDK5R2 (cyclin dependent kinase 5 regulatory subunit 2) | 0.58 | 1 | -0.231 | -0.0942 | -0.0235
PEAK1 (pseudopodium enriched atypical kinase 1) | -1.24 | 0.857 | -0.0876 | -0.0981 | 0.00243
AAK1 (AP2 associated kinase 1) | 0.403 | 0.986 | -0.145 | -0.155 | 0.0109
BMPR1B (bone morphogenetic protein receptor type 1B) | 0.2 | 0.97 | -0.0616 | -0.0489 | 0.0398
TSSK6 (testis specific serine kinase 6) | -1.52 | 0.836 | -0.0972 | -0.0924 | 0.0387
MET (MET proto-oncogene, receptor tyrosine kinase) | 0.58 | 1 | -0.15 | -0.121 | -0.0564
CERT1 (ceramide transporter 1) | 0.58 | 1 | -0.267 | -0.211 | -0.112
PFKL (phosphofructokinase, liver type) | 0.58 | 1 | -0.199 | -0.211 | 0.00466
AXL (AXL receptor tyrosine kinase) | 0.58 | 1 | -0.137 | -0.211 | -0.0692
MAP4K4 (mitogen-activated protein kinase kinase kinase kinase 4) | 0.58 | 1 | -0.0238 | 0.0105 | 0.0759
RPS6KA3 (ribosomal protein S6 kinase A3) | 0.58 | 1 | -0.124 | -0.211 | -0.0776
EPHB6 (EPH receptor B6) | 0.58 | 1 | -0.0804 | -0.151 | 0.0554
PIP4K2C (phosphatidylinositol-5-phosphate 4-kinase type 2 gamma) | 0.58 | 1 | -0.122 | 0.00471 | 0.033
PRKCE (protein kinase C epsilon) | 0.26 | 0.975 | -0.0467 | -0.177 | -0.0181
PDPK1 (3-phosphoinositide dependent protein kinase 1) | 0.235 | 0.973 | 0.0773 | 0.0278 | 0.181
PRKCD (protein kinase C delta) | 0.248 | 0.974 | 0.0573 | -0.021 | 0.129
CAMK2B (calcium/calmodulin dependent protein kinase II beta) | 0.58 | 1 | -0.197 | -0.211 | -0.0611
MAP3K21 (mitogen-activated protein kinase kinase kinase 21) | 0.58 | 1 | -0.14 | -0.173 | -0.0332
DGKK (diacylglycerol kinase kappa) | 0.58 | 1 | -0.144 | -0.153 | 0.227
EPHA5 (EPH receptor A5) | 0.58 | 1 | -0.181 | -0.0604 | -0.0707
PI4KA (phosphatidylinositol 4-kinase alpha) | 0.58 | 1 | -0.267 | -0.0903 | -0.00727
MAP3K20 (mitogen-activated protein kinase kinase kinase 20) | 0.58 | 1 | -0.272 | -0.21 | -0.171
MATK (megakaryocyte-associated tyrosine kinase) | -0.752 | 0.896 | -0.3 | -0.278 | -0.0697
GALK1 (galactokinase 1) | -0.837 | 0.889 | -0.115 | -0.275 | -0.172
FLT1 (fms related receptor tyrosine kinase 1) | 0.58 | 1 | -0.185 | -0.211 | 0.00476
BUB1 (BUB1 mitotic checkpoint serine/threonine kinase) | 0.0481 | 0.958 | -0.132 | -0.0568 | -0.0219
ABL1 (ABL proto-oncogene 1, non-receptor tyrosine kinase) | 0.58 | 1 | -0.246 | -0.211 | -0.0117
PANK1 (pantothenate kinase 1) | 0.58 | 1 | -0.232 | -0.211 | -0.074
NEK6 (NIMA related kinase 6) | 0.58 | 1 | -0.246 | -0.211 | -0.0987
BRSK2 (BR serine/threonine kinase 2) | 0.58 | 1 | -0.216 | -0.128 | 0.00887
SMC1A (structural maintenance of chromosomes 1A) | -0.23 | 0.937 | -0.236 | -0.0284 | 0.0915
CDK15 (cyclin dependent kinase 15) | 0.58 | 1 | -0.242 | -0.193 | -0.0697
FER (FER tyrosine kinase) | 0.58 | 1 | -0.191 | -0.00701 | -0.0196
EPHA10 (EPH receptor A10) | 0.58 | 1 | -0.144 | 0.105 | 0.19
TWF1 (twinfilin actin binding protein 1) | 0.58 | 1 | -0.2 | -0.211 | -0.0259
RPS6KA6 (ribosomal protein S6 kinase A6) | 0.58 | 1 | -0.172 | -0.211 | 0.0341
MTOR (mechanistic target of rapamycin kinase) | 0.58 | 1 | -0.21 | -0.211 | -0.036
GOLGA5 (golgin A5) | 0.58 | 1 | -0.272 | -0.208 | -0.101
SKAP1 (src kinase associated phosphoprotein 1) | 0.58 | 1 | -0.272 | -0.211 | -0.00483
TK2 (thymidine kinase 2) | 0.442 | 0.989 | -0.0968 | -0.126 | -0.069
MOS (MOS proto-oncogene, serine/threonine kinase) | 0.58 | 1 | -0.173 | -0.131 | -0.0235
MAPKAPK3 (MAPK activated protein kinase 3) | -3.1 (active) | 0.712 | -0.22 | -0.0895 | -0.0701
BMPR1A (bone morphogenetic protein receptor type 1A) | -0.246 | 0.935 | -0.0459 | -0.12 | -0.0323
EPHA4 (EPH receptor A4) | -0.883 | 0.886 | -0.249 | -0.109 | -0.0602
MST1R (macrophage stimulating 1 receptor) | -0.896 | 0.885 | -0.102 | -0.256 | -0.106
WNK4 (WNK lysine deficient protein kinase 4) | 0.58 | 1 | -0.272 | -0.211 | -0.103

Single entries from the entries so far:
Under “viability vs control pool, no drug (fraction)”, FLT1 (fms related receptor tyrosine kinase 1) has 1
Entry of RPS6KA3 (ribosomal protein S6 kinase A3) under “synergy score with BYL719”: -0.124
For “synergy score with BYL719”, SKAP1 (src kinase associated phosphoprotein 1) reads -0.272
Value for BRSK2 (BR serine/threonine kinase 2) under “viability vs control pool, no drug (fraction)”: 1
FER (FER tyrosine kinase), robust z-score, knock-down alone = 0.58
PRKCD (protein kinase C delta), synergy score with trametinib = 0.129
